Results published in patent US20090036365A1.
Results are given in words; binding and its absence hold for the method and conditions named. Some results given as binding are weak or reduced against the parent protein; the word gives no strength.

By UniProt entry, the sequences of proteins in these tests, tags left out. Residues count along the entry.
UniProt P00747, residues 97-810: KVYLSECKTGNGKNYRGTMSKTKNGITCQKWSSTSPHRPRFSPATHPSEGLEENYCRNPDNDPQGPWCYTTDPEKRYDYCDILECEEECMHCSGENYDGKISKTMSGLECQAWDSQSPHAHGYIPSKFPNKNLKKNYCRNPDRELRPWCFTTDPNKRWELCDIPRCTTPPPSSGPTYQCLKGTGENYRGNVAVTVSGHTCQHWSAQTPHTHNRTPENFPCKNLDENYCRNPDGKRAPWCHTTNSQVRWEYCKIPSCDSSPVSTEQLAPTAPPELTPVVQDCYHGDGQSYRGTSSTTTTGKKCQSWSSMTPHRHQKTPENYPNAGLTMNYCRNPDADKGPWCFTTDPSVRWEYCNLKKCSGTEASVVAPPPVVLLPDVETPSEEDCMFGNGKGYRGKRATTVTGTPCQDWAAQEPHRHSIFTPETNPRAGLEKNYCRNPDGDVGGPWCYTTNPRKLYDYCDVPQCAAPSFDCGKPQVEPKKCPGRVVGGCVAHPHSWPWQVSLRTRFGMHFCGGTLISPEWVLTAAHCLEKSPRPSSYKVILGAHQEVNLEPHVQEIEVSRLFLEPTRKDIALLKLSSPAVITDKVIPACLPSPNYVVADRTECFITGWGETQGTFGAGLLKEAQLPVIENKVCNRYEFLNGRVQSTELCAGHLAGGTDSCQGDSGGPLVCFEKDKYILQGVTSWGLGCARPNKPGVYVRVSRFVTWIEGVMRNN

What was measured:
[1] = target: human plasmin (human) (UniProt P00747); assay: phage display selection of the second library on plasmin, selected clone sequenced
[2] = target: human plasmin (human) (UniProt P00747); assay: separate phage display screening against plasmin, selected clone sequenced
[3] = target: human plasmin (human) (UniProt P00747); assay: phage display selection on plasmin-agarose beads, selected clone sequenced

B1: SPI35 (designed binder)
chain: MHSFCAFKADSGACRGRFERWFFNIFTRQCEEFIYGGCEGNQNRFESLEECKKMCTRD
**Q.** Which binding [1] does the source give for B1 here?
**A.** Its binding is “binds”.

B2: SPI14 (designed binder)
chain: MHSFCAFKADSGACRAKFRRWFFNIFTRQCEEFIYGGCEGNQNRFESLEECKKMCTRD
**Q.** Which binding [1] does the source give for B2 here?
**A.** The binding was “binds”.

B3: SPI27 (designed binder)
chain: MHSFCAFKAETGPCKGKIARFFFNIFTRQCEEFIYGGCEGNQNRFESLEECKKMCTRD
**Q.** For B3, which binding [1] is on record?
**A.** Its binding is “binds”.

B4: SPI33 (designed binder)
chain: MHSFCAFKAETGSCRGRFDRWFFNIFTRQCEEFIYGGCEGNQNRFESLEECKKMCTRD
**Q.** Which binding [1] does the source give for B4 here?
**A.** Its binding is “binds”.

B5: SPI25 (designed binder)
chain: MHSFCAFKADTGPCRASFPRLFFNIFTRQCEEFIYGGCEGNQNRFESLEECKKMCTRD
**Q.** With B5 as the binder, how does the binding [1] read?
**A.** The binding was “binds”.

B6: SPI02 (designed binder)
chain: MHSFCAFKADSGPCRGRFERFFFNIFTRQCEEFIYGGCEGNQNRFESLEECKKMCTRD
**Q.** How did the binding [1] turn out when B6 was run?
**A.** Its binding is “binds”.

B7: SPI05 (designed binder)
chain: MHSFCAFKAESGPCRAKFARFFFNIFTRQCEEFIYGGCEGNQNRFESLEECKKMCTRD
**Q.** With B7 as the binder, how does the binding [1] read?
**A.** The binding was “binds”.

B8: SPI06 (designed binder)
chain: MHSFCAFKADGGPCKGRFERWFFNIFTRQCEEFIYGGCEGNQNRFESLEECKKMCTRD
**Q.** B8 was tested. Which binding [1] did it give?
**A.** Its binding is “binds”.

B9: SPI36 (designed binder)
chain: MHSFCAFKAEGGPCRARFNRFFFNIFTRQCEEFIYGGCEGNQNRFESLEECKKMCTRD
**Q.** Which binding [1] does the source give for B9 here?
**A.** Its binding is “binds”.

B10: SPI21 (designed binder)
chain: MHSFCAFKADSGACKGKFERWFFNIFTRQCEEFIYGGCEGNQNRFESLEECKKMCTRD
**Q.** B10 was tested. Which binding [1] did it give?
**A.** The binding was “binds”.

B11: SPI07 (designed binder)
chain: MHSFCAFKADTGSCRAKIERWFFNIFTRQCEEFIYGGCEGNQNRFESLEECKKMCTRD
**Q.** B11 was tested. Which binding [1] did it give?
**A.** The binding was “binds”.

B12: SPI24 (designed binder)
chain: MHSFCAFKADTGPCRGRFERLFFNIFTRQCEEFIYGGCEGNQNRFESLEECKKMCTRD
**Q.** Which binding [1] does the source give for B12 here?
**A.** The binding was “binds”.

B13: SPI26 (designed binder)
chain: MHSFCAFKAETGPCRATFPRFFFNIFTRQCEEFIYGGCEGNQNRFESLEECKKMCTRD
**Q.** How did the binding [1] turn out when B13 was run?
**A.** Its binding is “binds”.

B14: SPI03 (designed binder)
chain: MHSFCAFKADSGPCKARFDRWFFNIFTRQCEEFIYGGCEGNQNRFESLEECKKMCTRD
**Q.** For B14, which binding [1] is on record?
**A.** Its binding is “binds”.

B15: SPI04 (designed binder)
chain: MHSFCAFKADGGPCRASFPRFFFNIFTRQCEEFIYGGCEGNQNRFESLEECKKMCTRD
**Q.** Which binding [1] does the source give for B15 here?
**A.** Its binding is “binds”.

B16: SPI28 (designed binder)
chain: MHSFCAFKADSGTCKARFPRFFFNIFTRQCEEFIYGGCEGNQNRFESLEECKKMCTRD
**Q.** B16 was tested. Which binding [1] did it give?
**A.** The binding was “binds”.

B17: ARFK#3 (designed binder)
chain: MHSFCAFKADDGLCKGRFQRFFFNIFTRQCEEFIYGGCEGNQNRFESLEECKKMCTRD
**Q.** B17 was tested. Which binding [2] did it give?
**A.** Its binding is “binds”.

B18: SPI31 (designed binder)
chain: MHSFCAFKAETGPCRARFGRWFFNIFTRQCEEFIYGGCEGNQNRFESLEECKKMCTRD
**Q.** Which binding [1] does the source give for B18 here?
**A.** The binding was “binds”.

B19: SPI38 (designed binder)
chain: MHSFCAFKAETGPCRARISRFFFNIFTRQCEEFIYGGCEGNQNRFESLEECKKMCTRD
**Q.** Which binding [1] does the source give for B19 here?
**A.** The binding was “binds”.

B20: SPI12 (designed binder)
chain: MHSFCAFKAETGPCRGMFPRWFFNIFTRQCEEFIYGGCEGNQNRFESLEECKKMCTRD
**Q.** B20 was tested. Which binding [1] did it give?
**A.** Its binding is “binds”.

B21: SPI18 (designed binder)
chain: MHSFCAFKAEGGPCRAKFERFFFNIFTRQCEEFIYGGCEGNQNRFESLEECKKMCTRD
**Q.** B21 was tested. Which binding [1] did it give?
**A.** The binding was “binds”.

B22: SPI13 (designed binder)
chain: MHSFCAFKAEGGPCRAKFARFFFNIFTRQCEEFIYGGCEGNQNRFESLEECKKMCTRD
**Q.** With B22 as the binder, how does the binding [1] read?
**A.** Its binding is “binds”.

B23: SPI32 (designed binder)
chain: MHSFCAFKADTGPCRASFGRWFFNIFTRQCEEFIYGGCEGNQNRFESLEECKKMCTRD
**Q.** How did the binding [1] turn out when B23 was run?
**A.** The binding was “binds”.

B24: SPI37 (designed binder)
chain: MHSFCAFKAEVGPCRASFHRWFFNIFTRQCEEFIYGGCEGNQNRFESLEECKKMCTRD
**Q.** For B24, which binding [1] is on record?
**A.** Its binding is “binds”.

B25: SPI34 (designed binder)
chain: MHSFCAFKAEVGPCRASFPRWFFNIFTRQCEEFIYGGCEGNQNRFESLEECKKMCTRD
**Q.** B25 was tested. Which binding [1] did it give?
**A.** The binding was “binds”.

B26: QS1 (designed binder)
chain: MHSFCAFKADDGPCKARFERFFFNIFTRQCEQFTYGGCRGNQNRFESLEECKKMCTRD
**Q.** For B26, which binding [3] is on record?
**A.** Its binding is “binds”.

B27: NS12 (designed binder)
chain: MHSFCAFKADDGPCKARFERFFFNIFTRQCEQFIYGGCFGNQNRFESLEECKKMCTRD
**Q.** B27 was tested. Which binding [3] did it give?
**A.** Its binding is “binds”.

B28: ARFK#7 (designed binder)
chain: MHSFCAFKADDGPCKARFERFFFNIFTRQCEQFSYGGCQGNQNRFESLEECKKMCTRD
**Q.** With B28 as the binder, how does the binding [2] read?
**A.** Its binding is “binds”.

B29: QS4 displayed on gIIIp of M13 (designed binder)
chain: MHSFCAFKADDGPCKARFERFFFNIFTRQCEQFYYGGCDGNQNRFESLEECKKMCTRD
**Q.** Which binding [3] does the source give for B29 here?
**A.** The binding was “binds”.

B30: QS7 (designed binder)
chain: MHSFCAFKADDGPCKARFERFFFNIFTRQCEQFHYGGCDGNQNRFESLEECKKMCTRD
**Q.** Which binding [3] does the source give for B30 here?
**A.** Its binding is “binds”.

B31: NS9 (designed binder)
chain: MHSFCAFKADDGPCKARFERFFFNIFTRQCEQFIYGGCQGNQNRFESLEECKKMCTRD
**Q.** How did the binding [3] turn out when B31 was run?
**A.** The binding was “binds”.

B32: NS16 (designed binder)
chain: MHSFCAFKADDGPCKARFERFFFNIFTRQCEQFLYGGCGGNQNRFESLEECKKMCTRD
**Q.** How did the binding [3] turn out when B32 was run?
**A.** Its binding is “binds”.

B33: NS6 (designed binder)
chain: MHSFCAFKADDGPCKARFERFFFNIFTRQCEEFTYGGCGGNQNRFESLEECKKMCTRD
**Q.** Which binding [3] does the source give for B33 here?
**A.** The binding was “binds”.

B34: ARFK#6 (designed binder)
chain: MHSFCAFKADDGPCKARFERFFFNIFTRQCEEFLYGGCLGNQNRFESLEECKKMCTRD
**Q.** For B34, which binding [2] is on record?
**A.** The binding was “binds”.

B35: QS8 (designed binder)
chain: MHSFCAFKADDGPCKARFERFFFNIFTRQCEQFDYGGCAGNQNRFESLEECKKMCTRD
**Q.** How did the binding [3] turn out when B35 was run?
**A.** The binding was “binds”.

B36: NS2 (designed binder)
chain: MHSFCAFKADDGPCKARFERFFFNIFTRQCQQFVYGGCGGNQNRFESLEECKKMCTRD
**Q.** How did the binding [3] turn out when B36 was run?
**A.** The binding was “binds”.

B37: NS4 (designed binder)
chain: MHSFCAFKADDGPCKARFERFFFNIFTRQCEQFTYGGCGGNQNRFESLEECKKMCTRD
**Q.** How did the binding [3] turn out when B37 was run?
**A.** Its binding is “binds”.

B38: ARFK#1 (display phage) (designed binder)
chain: MHSFCAFKADDGPCKARFERFFFNIFTRQCEQFVYGGCGGNQNRFESLEECKKMCTRD
**Q.** How did the binding [2] turn out when B38 was run?
**A.** The binding was “binds”.

B39: ARFK#2 (display phage) (designed binder)
chain: MHSFCAFKADDGPCKARFERFFFNIFTRQCEEFVYGGCGGNQNRFESLEECKKMCTRD
**Q.** With B39 as the binder, how does the binding [2] read?
**A.** The binding was “binds”.

B40: NS15 (designed binder)
chain: MHSFCAFKADDGPCKARFERFFFNIFTRQCEQFVYGGCAGNQNRFESLEECKKMCTRD
**Q.** B40 was tested. Which binding [3] did it give?
**A.** The binding was “binds”.

B41: NS14 (designed binder)
chain: MHSFCAFKADDGPCKARFERFFFNIFTRQCQQFHYGGCEGNQNRFESLEECKKMCTRD
**Q.** With B41 as the binder, how does the binding [3] read?
**A.** The binding was “binds”.

B42: QS9 (designed binder)
chain: MHSFCAFKADDGPCKARFERFFFNIFTRQCQEFRYGGCDGNQNRFESLEECKKMCTRD
**Q.** Which binding [3] does the source give for B42 here?
**A.** Its binding is “binds”.

B43: ARFK#4 (designed binder)
chain: MHSFCAFKADDGPCKARFERFFFNIFTRQCEQFTYGGCMGNQNRFESLEECKKMCTRD
**Q.** B43 was tested. Which binding [2] did it give?
**A.** Its binding is “binds”.

B44: ARFK#5 (designed binder)
chain: MHSFCAFKADDGPCKARFERFFFNIFTRQCEQFSYGGCGGNQNRFESLEECKKMCTRD
**Q.** How did the binding [2] turn out when B44 was run?
**A.** The binding was “binds”.

B45: ARFK#9 (designed binder)
chain: MHSFCAFKADDGPCKARFERFFFNIFTRQCEQFIYGGCVGNQNRFESLEECKKMCTRD
**Q.** For B45, which binding [2] is on record?
**A.** The binding was “binds”.

B46: QS13 (designed binder)
chain: MHSFCAFKADDGPCKARFERFFFNIFTRQCQQFYYGGCQGNQNRFESLEECKKMCTRD
**Q.** B46 was tested. Which binding [3] did it give?
**A.** The binding was “binds”.

B47: ARFK#8 (designed binder)
chain: MHSFCAFKADDGPCKARFERFFFNIFTRQCEQFAYGGCAGNQNRFESLEECKKMCTRD
**Q.** Which binding [2] does the source give for B47 here?
**A.** The binding was “binds”.

B48: QS15 (designed binder)
chain: MHSFCAFKADDGPCKARFERFFFNIFTRQCEEFAYGGCGGNQNRFESLEECKKMCTRD
**Q.** Which binding [3] does the source give for B48 here?
**A.** Its binding is “binds”.

B49: NS11 (designed binder)
chain: MHSFCAFKADDGPCKARFERFFFNIFTRQCEQFIYGGCGGNQNRFESLEECKKMCTRD
**Q.** B49 was tested. Which binding [3] did it give?
**A.** The binding was “binds”.
